# From PubChem BioAssay AID2685 (National Center for Advancing Translational Sciences (NCATS), 2010)
# The other results are listed elsewhere or left out. These are further read-outs of the screen, such as a control signal, another cell line or another target. No call is given for them. Compounds called inactive in the main read-out are mostly missing here. The note in brackets gives the kind of curve behind each potency; many fits are weak.
# Assay: qHTS Assay for Lipid Storage Modulators in Drosophila S3 Cells;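 for cell number change: cells counted by Cell Tracker Red CMTPX staining in the red channel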
# Conditions: BODIPY lipid droplet fluorescence, 18-24 h; for cell number change: measured here: cell count max response, cells fed with added oleic acid
# How it was run: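 Drosophila S3 cells got compounds at several concentrations plus oleic acid (400 uM solution). Laser-scanning cytometry with 488 nm excitation read lipid droplets at 500-530 nm and cells at 575-640 nm. Percent activity was relative to 20 uM Triacsin C.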
# [1] = measured here: lipid fluorescence (Fed channel) AC50, cells fed with added oleic acid
# [2] = measured here: cell number channel AC50, cells fed with added oleic acid
SMILES,cell number change,AC50 [1],AC50 [2]
COCCn1cnc2c1c(=O)n(CC(=O)NN)c(=O)n2Cc1ccccc1,17.6%,"2.59 µM [rising, partial curve]",
Cc1noc(C)c1COc1ccc(C(=O)N(C)CCOc2ccccc2)cc1,,"4.11 µM [falling, partial curve]",
COC(=O)c1cc2c(ccn2-c2ccc(F)cc2)n1Cc1ccc(OC(C)=O)cc1,-4.16%,"29.1 µM [falling, single point]",
Cn1c(-c2sccc2OCc2ccc(Cl)cc2Cl)n[nH]c1=S,27.5%,,"0.731 µM [rising, full curve, poor fit]"
CCOc1ccccc1N(CC(=O)NC1CCCCC1)C(=O)CCCC(=O)Nc1ccccn1,-26.8%,,
Cc1ccc(C(=O)NCC(=O)OCC(=O)c2ccccc2)s1,-0.505%,"23.1 µM [falling, single point]",
CC(=O)c1sc(NC(=O)CSC(C)C(=O)Nc2cc(C)on2)nc1-c1ccccc1 (stereo unspecified),-50%,"18.4 µM [falling, single point]","18.4 µM [falling, single point]"
C[C@H]1CN=C(N(C)C)N1CCCC1CCCCC1,-15%,"29.1 µM [falling, single point]",
Cc1cc(C)c2[nH]c(=O)c(C(c3nnnn3CC3CCCO3)N3CCCC(C)C3)cc2c1 (stereo unspecified),,"0.651 µM [rising, single point]","1.84 µM [rising, partial curve]"
O=C(Nc1ccc2c(c1)OCO2)C1CCCN1C(=O)NCc1ccccc1 (stereo unspecified),,,"1.64 µM [rising, single point]"
CS(=O)(=O)N(CC(=O)N1CCC(C(N)=O)CC1)c1ccc(Cl)c(C(F)(F)F)c1,-4.52%,"23.1 µM [falling, partial curve]","0.00461 µM [falling, full curve, poor fit]"
O=C(Nc1ccccc1-c1nc2ccccc2s1)C1=COCCO1,-21.2%,,
CC(=O)Nc1cc(C(=O)O)ccc1S(=O)(=O)c1ccc(C)cc1,-11.7%,"2.31 µM [falling, full curve, poor fit]",
O=C(/C=C/c1ccccc1)NC1CC2CCC1C2 (stereo unspecified),5.86%,"1.64 µM [rising, single point]",
COc1ccccc1CNC(=O)C1CCN(S(=O)(=O)c2ccc3c(c2)C(C)(C)C(=O)N3C)CC1,10.2%,,
COc1ccc(-n2cc(C(=O)c3cc(Cl)ccc3O)cc(C#N)c2=O)cc1,-11%,"5.17 µM [falling, partial curve]","6.51 µM [falling, single point]"
O=C(c1cccc(N2CCCC2=O)c1)N1CCOCC1,1.7%,"3.26 µM [falling, single point]",
Cc1[nH]c2ccccc2c1/C=N/Nc1ccc([N+](=O)[O-])cc1,-16.8%,,
O=C(NC1CCS(=O)(=O)C1)c1cccc(S(=O)(=O)N2CCOCC2)c1 (stereo unspecified),-4.22%,"29.1 µM [falling, single point]",
CCCC(=O)Nc1ccccc1Sc1ncnc2scc(-c3ccccc3)c12,29.9%,"0.00461 µM [falling, full curve, poor fit]",
COc1ccc(N(CC(=O)N2CCc3ccccc3C2)S(=O)(=O)c2c(C)[nH]c(=O)[nH]c2=O)cc1,37.4%,,"16.4 µM [rising, partial curve, poor fit]"

SMILES,cell number change,AC50 [1],AC50 [2]
CCOC(=O)C1CCCN(C(=O)c2cnn3c(C(F)(F)F)cc(-c4ccccc4)nc23)C1 (stereo unspecified),21.2%,,
CC(C)CCNC(=O)CN(Cc1cccs1)C(=O)CCC(=O)Nc1nccs1,,"3.26 µM [rising, full curve]",
COCc1nnc(NC(=O)CSc2ccc(C)cc2)s1,29%,,
Cc1ccc(-n2[nH]c(C)c(C=Nc3ccc(S(=O)(=O)Nc4nccs4)cc3)c2=O)cc1C,-32%,"32.6 µM [falling, single point]","29.1 µM [falling, single point]"
CCc1cc2c(=O)n(-c3ccccc3)cnc2s1,1.63%,"6.51 µM [falling, single point]",
Cc1cc(-c2ccccc2)n2nc(C)c(C#N)c2n1,2.31%,,
N/C(CSc1nc(-c2ccccc2)c(-c2ccccc2)o1)=N\O,-38.5%,,"18.4 µM [falling, single point]"
O=C(c1cccc(Cl)c1)N1CCN(c2ncnc3c2cnn3-c2ccccc2)CC1,-36.1%,"29.1 µM [falling, single point]","29.1 µM [falling, single point]"
COc1ccc(/C=C(/NC(=O)c2ccccc2)C(=O)NCCCn2ccnc2)cc1OC,-7.65%,,"0.00461 µM [falling, full curve, poor fit]"
COc1cccc(N(CC(=O)Nc2cccc(F)c2)S(C)(=O)=O)c1,1.3%,,
COc1cc(/C=N/N(C)C)ccc1OC(=O)c1ccco1,,"6.51 µM [rising, single point]",
COC(=O)C1C(O)=C(C=Nc2ccccc2)C(=O)CC1(C)C (stereo unspecified),43.1%,"29.1 µM [rising, single point]","29.1 µM [rising, single point]"
CC(C)C(NC(=O)C1CCCCC1)C(=O)NC1=NCCS1 (stereo unspecified),34.8%,,"23.1 µM [rising, single point]"
CCOC(=O)c1sc(NC(=O)CSc2nc3ccccc3s2)c(C(=O)OCC)c1C,16.8%,"0.366 µM [rising, full curve, poor fit]",
O=C1CC(C(=O)N(c2cccc(F)c2)C(C(=O)NC2CCCC2)c2ccccn2)CS1 (stereo unspecified),0.471%,"0.731 µM [rising, single point]",
Cc1ccc(COc2coc(CN3CCN(C(=O)c4ccco4)CC3)cc2=O)cc1,-3.42%,,
CC(C)(C)c1cc(C(=O)O)c(CN2CCCCC2)o1,-17.2%,"32.6 µM [falling, partial curve, poor fit]",
Cc1sc2ncn(CC(=O)NCCCC(=O)N3CCCCC3)c(=O)c2c1C,10.4%,"0.58 µM [falling, partial curve, poor fit]",
O=C(C1CCN(c2ncnc3c2nc2n3CCCCC2)CC1)N1CCN(c2ccc(F)cc2)CC1,17.6%,"6.51 µM [rising, single point]","0.058 µM [rising, full curve, poor fit]"
Cc1cccc(NC(=O)COC(=O)c2ccc(S(=O)(=O)N3CCCC3)cc2)c1,-15.7%,,
COc1cc(NC(=O)CCC(=O)c2cccs2)cc(OC)c1,35.1%,,"3.26 µM [rising, full curve, poor fit]"

SMILES,cell number change,AC50 [1],AC50 [2]
Cc1ccc(S(=O)(=O)N(C)Cc2cc3cc(C)ccc3[nH]c2=O)cc1,22.2%,"29.1 µM [rising, single point]",
COc1ccccc1-c1nc2ccccc2nc1-c1ccccc1,58.1%,,"29.1 µM [rising, single point]"
O=C(c1ccc(S(=O)(=O)c2ccccc2Cl)c([N+](=O)[O-])c1)N1CCCCCC1,-15.5%,"20.6 µM [falling, single point]",
Cc1cccn2c(=O)c(C=NCCO)c(NCc3ccco3)nc12,-16.8%,"0.146 µM [rising, full curve, poor fit]","0.259 µM [rising, partial curve, poor fit]"
COc1ccc(CCC(=O)Nc2cccc(Cl)c2)cc1,17.4%,,
CCOc1cc(-c2nc(C)c(C(C)=O)n2O)ccc1OCC(=O)Nc1cccc(C)c1,6.92%,,
Cc1ccc(S(=O)(=O)N2CCN(S(=O)(=O)c3ccc(C)cc3)C2c2ccccc2)cc1,10.5%,,
Cn1cnc(C(=O)N2CCN(c3ccccc3)CC2)c1C(=O)N1CCN(c2ccccc2)CC1,-7.7%,"0.58 µM [rising, single point]",
Cc1ccc(S(=O)(=O)N(C)C)cc1NC(=O)CCc1c[nH]c2ccccc12,23.6%,,
O=C(COC(=O)c1cccc(S(=O)(=O)N2CCOCC2)c1)Nc1ncc(Cl)cc1Cl,-11.8%,"14.6 µM [rising, single point]",
O=C(NN1CCOCC1)c1cccc(COc2cccc(Br)c2)c1,2.11%,"4.61 µM [rising, partial curve, poor fit]",
Cc1cc(C(=O)OCC(=O)Nc2cc(S(=O)(=O)N3CCOCC3)ccc2Cl)c(C)o1,-7.37%,,
c1ccc(CNc2ncnc3sccc23)cc1,,"11.6 µM [falling, partial curve, poor fit]",
NS(=O)(=O)c1ccc(NC(=S)NC(=O)c2ccc3c(c2)OCO3)cc1,-4.4%,,
CC(=O)Nc1ccc(-c2nnc(SCc3c(C)cc(C)cc3C)n2C)cc1,-112%,"2.06 µM [falling, full curve]","2.06 µM [falling, full curve]"
CC(=O)Nc1ccc(NC(=O)COC(=O)/C(=C/c2ccccc2)n2nnnc2C)cc1,-50.1%,"14.6 µM [falling, partial curve]","13 µM [falling, partial curve]"
COc1cccc(-c2nnc(NC(=O)c3ccc(S(=O)(=O)N(CC(C)C)CC(C)C)cc3)o2)c1,5.36%,,"0.00461 µM [falling, full curve, poor fit]"
COc1cc(C)c(NC(c2ccccc2)c2ccccc2)cc1OC,23%,"6.51 µM [rising, single point]",
COc1cccc(-c2nnc(Nc3nc4c(F)cccc4s3)o2)c1,-11%,"14.6 µM [falling, partial curve, poor fit]",

# Four compounds already listed, arranged by length of the SMILES, rising.
SMILES,cell number change,AC50 [1],AC50 [2]
COc1ccc(CCC(=O)Nc2cccc(Cl)c2)cc1,17.4%,,
COc1cccc(-c2nnc(Nc3nc4c(F)cccc4s3)o2)c1,-11%,"14.6 µM [falling, partial curve, poor fit]",
Cc1sc2ncn(CC(=O)NCCCC(=O)N3CCCCC3)c(=O)c2c1C,10.4%,"0.58 µM [falling, partial curve, poor fit]",
O=C(C1CCN(c2ncnc3c2nc2n3CCCCC2)CC1)N1CCN(c2ccc(F)cc2)CC1,17.6%,"6.51 µM [rising, single point]","0.058 µM [rising, full curve, poor fit]"
